Measured values from the supplement of paper PMC10849652.
The other results are listed elsewhere or left out.

Chains of the proteins cited; added tags and fusions are not shown. Lines headed by an entry give the natural chain unless they say otherwise; changes in a name come on top.
UniProt P35520: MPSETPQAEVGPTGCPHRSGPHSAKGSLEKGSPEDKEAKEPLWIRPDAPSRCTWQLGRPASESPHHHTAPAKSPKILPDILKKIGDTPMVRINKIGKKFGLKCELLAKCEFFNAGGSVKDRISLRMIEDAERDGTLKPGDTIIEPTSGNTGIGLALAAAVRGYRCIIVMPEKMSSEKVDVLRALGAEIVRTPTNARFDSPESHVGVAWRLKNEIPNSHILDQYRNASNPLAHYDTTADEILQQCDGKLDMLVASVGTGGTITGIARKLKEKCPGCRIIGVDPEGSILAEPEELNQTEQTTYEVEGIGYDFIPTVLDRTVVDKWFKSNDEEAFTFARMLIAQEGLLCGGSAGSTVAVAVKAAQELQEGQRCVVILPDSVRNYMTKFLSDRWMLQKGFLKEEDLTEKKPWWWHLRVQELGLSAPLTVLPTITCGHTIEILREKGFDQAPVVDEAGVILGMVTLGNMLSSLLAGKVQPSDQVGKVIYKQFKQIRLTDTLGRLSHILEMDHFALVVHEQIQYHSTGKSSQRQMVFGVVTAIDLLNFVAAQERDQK
UniProt Q8IVM0: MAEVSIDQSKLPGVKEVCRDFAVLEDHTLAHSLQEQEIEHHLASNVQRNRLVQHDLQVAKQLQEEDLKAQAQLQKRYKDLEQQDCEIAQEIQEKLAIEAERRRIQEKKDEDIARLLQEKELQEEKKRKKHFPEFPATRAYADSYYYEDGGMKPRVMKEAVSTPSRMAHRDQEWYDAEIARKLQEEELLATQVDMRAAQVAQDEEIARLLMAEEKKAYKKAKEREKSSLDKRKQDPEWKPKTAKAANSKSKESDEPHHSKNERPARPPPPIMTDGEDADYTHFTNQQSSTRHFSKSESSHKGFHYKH
UniProt P20248, whole entry, looked up: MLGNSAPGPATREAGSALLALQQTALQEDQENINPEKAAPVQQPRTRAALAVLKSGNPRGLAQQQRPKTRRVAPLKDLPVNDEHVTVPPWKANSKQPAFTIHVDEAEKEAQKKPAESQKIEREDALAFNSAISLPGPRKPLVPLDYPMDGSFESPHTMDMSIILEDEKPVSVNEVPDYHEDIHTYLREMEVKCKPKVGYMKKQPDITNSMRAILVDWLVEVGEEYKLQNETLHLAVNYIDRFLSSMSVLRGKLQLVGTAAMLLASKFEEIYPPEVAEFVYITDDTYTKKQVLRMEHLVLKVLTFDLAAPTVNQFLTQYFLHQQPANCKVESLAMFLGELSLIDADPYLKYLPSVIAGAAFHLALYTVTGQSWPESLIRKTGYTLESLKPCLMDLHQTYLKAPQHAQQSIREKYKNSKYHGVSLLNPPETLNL
UniProt O14618: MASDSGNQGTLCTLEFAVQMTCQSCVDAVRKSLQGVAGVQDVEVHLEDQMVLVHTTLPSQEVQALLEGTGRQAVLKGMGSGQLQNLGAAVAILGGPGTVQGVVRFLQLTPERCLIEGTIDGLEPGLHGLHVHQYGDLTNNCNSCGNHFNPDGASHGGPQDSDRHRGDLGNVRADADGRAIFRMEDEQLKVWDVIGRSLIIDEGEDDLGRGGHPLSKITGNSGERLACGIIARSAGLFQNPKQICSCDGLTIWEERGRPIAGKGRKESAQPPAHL
UniProt Q6PK04: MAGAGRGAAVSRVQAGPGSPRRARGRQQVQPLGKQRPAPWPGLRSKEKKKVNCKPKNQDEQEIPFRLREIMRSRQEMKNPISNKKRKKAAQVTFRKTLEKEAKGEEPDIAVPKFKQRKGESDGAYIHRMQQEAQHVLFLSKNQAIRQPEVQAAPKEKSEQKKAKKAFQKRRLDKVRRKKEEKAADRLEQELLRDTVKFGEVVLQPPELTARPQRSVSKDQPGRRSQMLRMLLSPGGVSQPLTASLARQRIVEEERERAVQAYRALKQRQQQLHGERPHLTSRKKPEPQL
UniProt P60033: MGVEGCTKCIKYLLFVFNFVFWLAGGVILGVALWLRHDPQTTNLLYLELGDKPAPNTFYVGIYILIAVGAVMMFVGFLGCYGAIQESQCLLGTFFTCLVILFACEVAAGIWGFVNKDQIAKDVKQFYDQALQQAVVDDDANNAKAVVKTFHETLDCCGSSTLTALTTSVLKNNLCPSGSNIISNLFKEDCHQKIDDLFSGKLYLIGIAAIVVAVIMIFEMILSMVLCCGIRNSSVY
UniProt P55211: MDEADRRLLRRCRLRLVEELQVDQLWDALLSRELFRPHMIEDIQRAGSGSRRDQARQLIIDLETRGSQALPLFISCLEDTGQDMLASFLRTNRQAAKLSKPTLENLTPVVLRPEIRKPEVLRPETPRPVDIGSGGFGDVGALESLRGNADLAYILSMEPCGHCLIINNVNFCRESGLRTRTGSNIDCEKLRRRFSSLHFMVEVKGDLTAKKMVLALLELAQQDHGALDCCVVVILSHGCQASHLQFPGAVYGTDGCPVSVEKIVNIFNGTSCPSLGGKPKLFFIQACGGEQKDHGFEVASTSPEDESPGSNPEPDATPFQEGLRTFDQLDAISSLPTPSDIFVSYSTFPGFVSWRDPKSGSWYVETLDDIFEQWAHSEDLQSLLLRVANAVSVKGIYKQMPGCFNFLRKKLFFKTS
UniProt P55212: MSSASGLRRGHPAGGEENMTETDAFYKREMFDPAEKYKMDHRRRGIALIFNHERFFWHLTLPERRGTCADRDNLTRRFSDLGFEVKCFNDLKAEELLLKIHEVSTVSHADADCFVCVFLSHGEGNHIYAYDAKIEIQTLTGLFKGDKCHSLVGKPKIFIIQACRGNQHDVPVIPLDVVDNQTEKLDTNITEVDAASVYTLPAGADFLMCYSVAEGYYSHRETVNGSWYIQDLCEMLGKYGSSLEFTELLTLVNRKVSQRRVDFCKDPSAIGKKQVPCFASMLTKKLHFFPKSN
UniProt A6NHX0: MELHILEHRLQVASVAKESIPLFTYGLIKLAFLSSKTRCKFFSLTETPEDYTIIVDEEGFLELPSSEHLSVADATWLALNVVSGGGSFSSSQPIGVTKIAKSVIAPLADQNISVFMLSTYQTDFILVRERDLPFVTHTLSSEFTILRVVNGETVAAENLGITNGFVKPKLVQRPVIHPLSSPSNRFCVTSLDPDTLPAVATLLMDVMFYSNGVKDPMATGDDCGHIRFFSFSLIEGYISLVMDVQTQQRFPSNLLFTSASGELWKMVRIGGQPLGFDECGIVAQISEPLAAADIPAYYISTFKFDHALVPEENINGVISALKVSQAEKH
UniProt Q9NPF0: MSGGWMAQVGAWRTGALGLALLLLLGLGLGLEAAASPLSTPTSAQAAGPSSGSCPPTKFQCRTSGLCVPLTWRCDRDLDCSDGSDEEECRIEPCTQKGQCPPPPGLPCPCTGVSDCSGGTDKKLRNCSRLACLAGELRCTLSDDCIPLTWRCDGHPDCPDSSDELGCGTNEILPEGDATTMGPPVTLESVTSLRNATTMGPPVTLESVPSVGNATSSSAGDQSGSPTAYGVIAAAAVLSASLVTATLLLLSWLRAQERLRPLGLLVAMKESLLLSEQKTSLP
UniProt Q6PII3: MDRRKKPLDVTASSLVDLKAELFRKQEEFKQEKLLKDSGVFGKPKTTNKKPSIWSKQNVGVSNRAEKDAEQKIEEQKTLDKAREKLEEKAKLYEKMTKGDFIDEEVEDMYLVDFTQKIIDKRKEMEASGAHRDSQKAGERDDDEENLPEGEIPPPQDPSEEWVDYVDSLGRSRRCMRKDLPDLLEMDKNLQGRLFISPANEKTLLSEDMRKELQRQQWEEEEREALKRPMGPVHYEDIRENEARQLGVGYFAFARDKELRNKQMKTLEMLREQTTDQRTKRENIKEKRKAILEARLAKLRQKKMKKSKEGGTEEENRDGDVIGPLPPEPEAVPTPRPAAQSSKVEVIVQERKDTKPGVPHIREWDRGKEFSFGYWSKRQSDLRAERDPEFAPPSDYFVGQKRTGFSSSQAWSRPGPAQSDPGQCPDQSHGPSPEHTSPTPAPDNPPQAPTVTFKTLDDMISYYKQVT
UniProt P08174: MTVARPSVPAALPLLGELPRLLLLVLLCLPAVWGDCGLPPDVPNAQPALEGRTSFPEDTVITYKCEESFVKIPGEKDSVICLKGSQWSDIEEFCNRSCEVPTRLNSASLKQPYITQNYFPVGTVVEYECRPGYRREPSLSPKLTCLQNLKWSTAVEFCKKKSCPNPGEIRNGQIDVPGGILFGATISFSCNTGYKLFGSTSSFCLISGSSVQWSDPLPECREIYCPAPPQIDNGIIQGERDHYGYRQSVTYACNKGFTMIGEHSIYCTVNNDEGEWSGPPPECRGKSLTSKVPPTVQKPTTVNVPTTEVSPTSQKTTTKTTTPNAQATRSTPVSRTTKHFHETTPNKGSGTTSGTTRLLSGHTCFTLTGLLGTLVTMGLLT
UniProt Q8N7R7: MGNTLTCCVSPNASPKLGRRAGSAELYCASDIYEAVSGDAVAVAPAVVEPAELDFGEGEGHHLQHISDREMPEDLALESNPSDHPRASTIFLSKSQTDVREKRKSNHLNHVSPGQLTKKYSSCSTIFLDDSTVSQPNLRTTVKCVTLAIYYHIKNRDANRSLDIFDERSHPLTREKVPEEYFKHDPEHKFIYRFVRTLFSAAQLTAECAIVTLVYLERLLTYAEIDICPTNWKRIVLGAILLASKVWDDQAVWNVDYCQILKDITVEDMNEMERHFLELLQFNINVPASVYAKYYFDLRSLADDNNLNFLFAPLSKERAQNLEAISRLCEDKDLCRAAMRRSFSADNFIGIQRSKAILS
UniProt P86791: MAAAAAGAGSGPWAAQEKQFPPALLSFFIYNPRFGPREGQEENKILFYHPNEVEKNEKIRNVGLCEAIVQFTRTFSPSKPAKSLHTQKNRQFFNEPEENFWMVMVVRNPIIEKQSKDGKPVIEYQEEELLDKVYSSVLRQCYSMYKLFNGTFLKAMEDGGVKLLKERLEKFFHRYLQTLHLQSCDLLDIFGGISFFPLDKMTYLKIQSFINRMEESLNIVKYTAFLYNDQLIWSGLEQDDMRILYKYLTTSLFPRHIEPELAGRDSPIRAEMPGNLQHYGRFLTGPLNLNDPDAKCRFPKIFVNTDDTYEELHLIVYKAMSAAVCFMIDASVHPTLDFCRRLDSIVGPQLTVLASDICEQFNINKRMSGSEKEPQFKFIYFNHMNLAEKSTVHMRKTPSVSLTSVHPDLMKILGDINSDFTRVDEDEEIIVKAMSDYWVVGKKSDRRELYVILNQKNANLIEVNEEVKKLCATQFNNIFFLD
UniProt Q9H257: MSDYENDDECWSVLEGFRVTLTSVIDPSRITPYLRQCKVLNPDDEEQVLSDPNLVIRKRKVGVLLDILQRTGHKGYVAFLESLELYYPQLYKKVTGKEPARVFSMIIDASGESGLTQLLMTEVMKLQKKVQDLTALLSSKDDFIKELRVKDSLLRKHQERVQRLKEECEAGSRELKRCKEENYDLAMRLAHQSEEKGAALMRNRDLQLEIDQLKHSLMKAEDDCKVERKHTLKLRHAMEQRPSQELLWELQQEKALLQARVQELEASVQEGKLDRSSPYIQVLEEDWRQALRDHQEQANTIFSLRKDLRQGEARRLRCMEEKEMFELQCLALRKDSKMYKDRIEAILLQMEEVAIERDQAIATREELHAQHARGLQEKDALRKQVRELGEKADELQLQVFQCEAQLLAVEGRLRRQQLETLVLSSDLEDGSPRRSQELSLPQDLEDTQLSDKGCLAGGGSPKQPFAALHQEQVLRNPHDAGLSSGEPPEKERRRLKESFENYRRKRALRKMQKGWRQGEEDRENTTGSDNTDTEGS

Columns and labels:
Test in all cases: log2 fold change, soluble protein after heating vs DMSO (PISA); higher = thermal stabilisation; K562 lysate, 10 uM; active = over 0.2 and 3.5 SD of the protein, either way, in both replicates (recomputed)
[1] = compound: CCCS(=O)(=O)Nc1ccc(F)c(C(=O)c2c[nH]c3ncc(-c4ccc(Cl)cc4)cc23)c1F [vemurafenib]
In short: (§1)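 The values are log-two fold changes in thermal stability compared with solvent controls and come from duplicates. They were obtained by TMTpro 16plex LC-MS/MS, with channel sums equalised, on the supernatant after 21,000xg for 90 min. That supernatant came from crude K562 extract at 1 mg/mL protein treated with 10 μM compound for 30 min, heated for 3 min across 48°C-58°C, pooled and brought to 0.5% NP-40 at 4°C.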

[2] = compound: CCCS(=O)(=O)Nc1ccc(F)c(C(=O)c2c[nH]c3ncc(Cl)cc23)c1F
In short: as §1

[3] = compound: CCN(CCCOc1ccc2c(Nc3cc(CC(=O)Nc4cccc(F)c4)[nH]n3)ncnc2c1)CCOP(=O)(O)O [barasertib]
In short: as §1

[4] = compound: CC[C@@H]1C(=O)N(C)c2cnc(Nc3ccc(C(=O)NC4CCN(C)CC4)cc3OC)nc2N1C1CCCC1
In short: as §1

[5] = compound: CC[C@@H]1C(=O)N(C)c2cnc(Nc3ccc(C(=O)N[C@H]4CC[C@H](N5CCN(CC6CC6)CC5)CC4)cc3OC)nc2N1C(C)C [volasertib]
In short: as §1

[6] = compound: CCn1c(C(=O)N(C2CC2)C2CC2)cc2c3c(ncn3C)c(Nc3cc(C)n(C)n3)nc21
In short: as §1

[7] = compound: CCn1cc(-c2ccnc3[nH]c(-c4cccc(CN(C)C)c4)cc23)c(-c2ccc(NC(=O)N(C)C)cc2)n1
In short: as §1

[8] = compound: CN1CCC(CNc2ccc3ncc(-c4cccc(OC(F)(F)F)c4)n3n2)CC1
In short: as §1

[9] = compound: CN1CCN(CCOc2cc(OC3CCOCC3)c3c(Nc4c(Cl)ccc5c4OCO5)ncnc3c2)CC1 [saracatinib]
In short: as §1

[10] = compound: CN1CCN(c2nc(C3=C(c4c[nH]c5ccccc45)C(=O)NC3=O)c3ccccc3n2)CC1 [sotrastaurin]
In short: as §1

[11] = compound: CN1CC[C@H](c2c(O)cc(O)c3c(=O)cc(-c4ccccc4Cl)oc23)[C@H](O)C1 [alvocidib]
In short: as §1

[12] = compound: CN1CCc2c(c3ccccc3n2Cc2ccc(C(=O)NO)cc2)C1 [Tubastatin A]
In short: as §1

[13] = compound: CNC(=O)C1=CC=CC=C1NC2=NC(=NC=C2Cl)NC3=C(C=C(C=C3)N4CCOCC4)OC
In short: as §1

[14] = compound: CNC(=O)c1ccc(Nc2ncc(C(F)(F)F)c(NCc3nccnc3N(C)S(C)(=O)=O)n2)cc1 [defactinib]
In short: as §1

[15] = compound: CNc1nc(-c2ccc3c(N)n[nH]c3c2)cc(N2C[C@@H](C(=O)NC3CCCCC3)CC[C@H]2C)n1
In short: as §1

[16] = compound: COC(=O)N[C@@H](C)CNc1nccc(-c2cn(C(C)C)nc2-c2cc(Cl)cc(NS(C)(=O)=O)c2F)n1 [encorafenib]
In short: as §1

[17] = compound: COC(=O)[C@H](CCSC)NC(=O)C1=C(C=C(C=C1)NC[C@H](CS)N)C2=CC=CC=C2
In short: as §1

[18] = compound: COc1cc(Nc2ncc3c(n2)-c2ccc(Cl)cc2C(c2c(F)cccc2OC)=NC3)ccc1C(=O)O [alisertib]
In short: as §1

[19] = compound: COc1cc2nc(-c3cc(F)ccc3O)nc(N[C@@H]3CNC[C@H]3C(C)(C)O)c2cc1OC
In short: as §1

[20] = compound: COc1cc2ncnc(Nc3ccc(F)c(Cl)c3)c2cc1OCCCN1CCOCC1 [gefitinib]
In short: as §1

Measured: log2 fold change

CBS (UniProt P35520)
inactive: [1] -0.073 | [2] 0.009 | [3] -0.021 | [4] -0.035 | [5] -0.003 | [6] 0.02 | [7] -0.019 | [8] 0.025 | [9] -0.014 | [10] 0.023 | [11] 0.023 | [12] 0.016 | [13] -0.04 | [14] 0.011 | [15] -0.052 | [16] -0.001 | [17] 0 | [18] 0.017 | [19] 0.003 | [20] -0.004

CBX4 (UniProt O00257)
inactive: [1] 0.019 | [2] 0.004 | [3] 0.039 | [4] 0.163 | [5] 0.016 | [6] -0.154 | [7] 0.055 | [8] -0.045 | [9] 0.01 | [10] -0.046 | [11] -0.075 | [12] 0.144 | [13] -0.014 | [14] 0.175 | [15] 0.162 | [16] 0.081 | [17] -0.041 | [18] -0.059 | [19] 0.11 | [20] -0.031

CCDC50 isoform 2 (UniProt Q8IVM0)
inactive: [1] -0.046 | [2] -0.005 | [3] 0.002 | [4] -0.056 | [5] 0.011 | [6] -0.025 | [7] 0.007 | [8] 0.033 | [9] 0.037 | [10] -0.02 | [11] 0.007 | [12] 0.03 | [13] -0.062 | [14] 0.001 | [15] -0.146 | [16] 0.053 | [17] -0.013 | [18] -0.018 | [19] -0.009 | [20] 0.048

CCNA2 (UniProt P20248)
inactive: [1] -0.033 | [2] -0.004 | [3] -0.056 | [4] 0.022 | [5] -0.018 | [6] -0.03 | [7] -0.183 | [8] 0.169 | [9] 0.001 | [10] 0 | [11] 0.044 | [12] 0.011 | [13] -0.002 | [14] 0.037 | [15] -0.017 | [16] 0.005 | [17] -0.012 | [18] -0.029 | [19] 0.176 | [20] 0.019

CCS (UniProt O14618)
inactive: [1] -0.031 | [2] -0.012 | [3] 0.101 | [4] -0.053 | [5] 0.01 | [6] 0.023 | [7] -0.051 | [8] 0.05 | [9] -0.005 | [10] 0.009 | [11] -0.01 | [12] 0.032 | [13] -0.023 | [14] -0.008 | [15] -0.041 | [16] -0.001 | [17] 0 | [18] 0.006 | [19] 0.007 | [20] 0.007

CCDC137 (UniProt Q6PK04)
inactive: [1] -0.011 | [2] 0.046 | [3] -0.019 | [4] 0.121 | [5] -0.018 | [6] -0.016 | [7] 0.008 | [8] -0.035 | [9] -0.026 | [10] -0.046 | [11] -0.039 | [12] 0.016 | [13] -0.017 | [14] 0.057 | [15] 0.005 | [16] 0.051 | [17] 0.053 | [18] -0.076 | [19] -0.023 | [20] -0.108

CD81 (UniProt P60033)
inactive: [1] 0.092 | [2] -0.002 | [3] -0.07 | [4] 0.125 | [5] 0.058 | [6] 0.035 | [7] 0 | [8] 0.116 | [9] -0.041 | [10] 0.141 | [11] -0.022 | [12] 0.024 | [13] -0.034 | [14] -0.088 | [15] -0.097 | [16] 0.108 | [17] -0.097 | [18] -0.025 | [19] -0.002 | [20] 0.112

CASP9 (UniProt P55211)
inactive: [1] -0.017 | [2] 0.001 | [3] -0.002 | [4] 0.025 | [5] 0.029 | [6] -0.061 | [7] -0.013 | [8] 0.005 | [9] 0.003 | [10] 0.045 | [11] -0.01 | [12] -0.043 | [13] -0.021 | [14] 0.039 | [15] -0.014 | [16] 0.023 | [17] -0.077 | [18] 0.014 | [19] 0.017 | [20] 0.052

CASP6 (UniProt P55212)
inactive: [1] 0.006 | [2] -0.012 | [3] -0.071 | [4] 0.018 | [5] -0.017 | [6] 0.025 | [7] 0.242 | [8] 0.013 | [9] -0.004 | [10] -0.016 | [11] -0.011 | [12] -0.003 | [13] 0.067 | [14] 0.039 | [15] -0.046 | [16] -0.015 | [17] -0.026 | [18] 0.023 | [19] -0.029 | [20] 0.061

CASTOR2 (UniProt A6NHX0)
inactive: [1] 0.123 | [2] 0.004 | [3] -0.018 | [4] 0.064 | [5] 0.005 | [6] -0.011 | [7] -0.02 | [8] 0.013 | [9] -0.024 | [10] 0.042 | [11] -0.004 | [12] 0.003 | [13] 0.016 | [14] -0.14 | [15] -0.005 | [16] 0.047 | [17] -0.028 | [18] 0.001 | [19] 0.011 | [20] 0

CD320 (UniProt Q9NPF0)
inactive: [1] 0 | [2] -0.04 | [3] 0.064 | [4] 0.02 | [5] -0.014 | [6] 0.148 | [7] -0.069 | [8] 0.042 | [9] 0.027 | [10] 0.003 | [11] -0.038 | [12] -0.096 | [13] 0.063 | [14] 0.025 | [15] -0.081 | [16] 0.013 | [17] 0.016 | [18] -0.021 | [19] -0.071 | [20] 0.012

CCDC174 (UniProt Q6PII3)
inactive: [1] -0.015 | [2] 0.026 | [3] -0.005 | [4] 0.065 | [5] 0.021 | [6] 0.024 | [7] 0.036 | [8] 0.01 | [9] 0.001 | [10] -0.019 | [11] -0.037 | [12] 0.012 | [13] -0.006 | [14] 0.031 | [15] -0.005 | [16] 0.022 | [17] -0.05 | [18] -0.028 | [19] -0.047 | [20] -0.008

CD55 isoform 7 (UniProt P08174)
inactive: [1] 0.004 | [2] -0.057 | [3] 0.044 | [4] -0.024 | [5] 0.03 | [6] -0.074 | [7] -0.06 | [8] 0.043 | [9] 0.009 | [10] 0.003 | [11] -0.044 | [12] 0.093 | [13] -0.071 | [14] -0.017 | [15] 0.024 | [16] -0.028 | [17] 0.002 | [18] -0.096 | [19] 0.02 | [20] 0.062

CCNYL1 (UniProt Q8N7R7)
inactive: [1] -0.072 | [2] 0.003 | [3] -0.046 | [4] 0.031 | [5] -0.046 | [6] 0.012 | [7] -0.188 | [8] 0.269 | [9] 0.051 | [10] 0.034 | [11] -0.074 | [12] -0.076 | [13] 0.061 | [14] 0.024 | [15] 0.055 | [16] 0.011 | [17] 0.032 | [18] -0.012 | [19] 0.032 | [20] 0.101

CCZ1 (UniProt P86791)
inactive: [1] 0.032 | [2] 0.002 | [3] 0.005 | [4] -0.02 | [5] -0.01 | [6] 0.044 | [7] -0.07 | [8] 0.015 | [9] 0 | [10] -0.003 | [11] -0.01 | [12] -0.043 | [13] 0.008 | [14] 0.041 | [15] -0.059 | [16] 0.016 | [17] -0.107 | [18] -0.024 | [19] -0.016 | [20] 0.011

CARD9 (UniProt Q9H257)
inactive: [1] 0.03 | [2] 0.026 | [3] 0.008 | [4] 0.068 | [5] -0.001 | [6] 0.011 | [7] -0.036 | [8] 0.013 | [9] 0.014 | [10] -0.01 | [11] -0.011 | [12] -0.099 | [13] 0.043 | [14] 0.05 | [15] 0.038 | [16] -0.06 | [17] 0.068 | [18] -0.004 | [19] 0.009 | [20] -0.021
